Results are given in words; binding and its absence hold for the method and conditions named. In cells and extracts the contact can be indirect. Some results given as binding are weak or reduced against the parent protein; the word gives no strength. Tags and fused reporters may be left off the sequences shown.
Target: T1, suppressor of fused homolog (SUFU) (human (endogenous in 5637 and T24)) (UniProt Q9UMX1)
T1 sequence: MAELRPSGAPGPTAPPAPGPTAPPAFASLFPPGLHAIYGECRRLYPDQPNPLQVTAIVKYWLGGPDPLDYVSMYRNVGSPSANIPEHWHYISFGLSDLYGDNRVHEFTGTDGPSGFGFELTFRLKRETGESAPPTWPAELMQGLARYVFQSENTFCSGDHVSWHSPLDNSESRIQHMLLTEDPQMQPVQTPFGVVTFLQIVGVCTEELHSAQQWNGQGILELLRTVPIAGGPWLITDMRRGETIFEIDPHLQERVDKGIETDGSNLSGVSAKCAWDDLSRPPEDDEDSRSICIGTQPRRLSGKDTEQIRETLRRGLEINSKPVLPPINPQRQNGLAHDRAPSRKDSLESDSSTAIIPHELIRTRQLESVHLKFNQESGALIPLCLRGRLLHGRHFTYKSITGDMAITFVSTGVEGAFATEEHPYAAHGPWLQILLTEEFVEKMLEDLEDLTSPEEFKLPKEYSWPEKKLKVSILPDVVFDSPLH
Experiment: co-IP; immunoprecipitation of endogenous SUFU from lysates of 5637 and T24 cells (Thermo Scientific co-immunoprecipitation kit), western blot of Gli1 and Gli2; nonspecific rabbit IgG as negative control; also from cells transfected with siROC1 or pROC1

Chains of the proteins cited; added tags and fusions are not shown.
UniProt P10070: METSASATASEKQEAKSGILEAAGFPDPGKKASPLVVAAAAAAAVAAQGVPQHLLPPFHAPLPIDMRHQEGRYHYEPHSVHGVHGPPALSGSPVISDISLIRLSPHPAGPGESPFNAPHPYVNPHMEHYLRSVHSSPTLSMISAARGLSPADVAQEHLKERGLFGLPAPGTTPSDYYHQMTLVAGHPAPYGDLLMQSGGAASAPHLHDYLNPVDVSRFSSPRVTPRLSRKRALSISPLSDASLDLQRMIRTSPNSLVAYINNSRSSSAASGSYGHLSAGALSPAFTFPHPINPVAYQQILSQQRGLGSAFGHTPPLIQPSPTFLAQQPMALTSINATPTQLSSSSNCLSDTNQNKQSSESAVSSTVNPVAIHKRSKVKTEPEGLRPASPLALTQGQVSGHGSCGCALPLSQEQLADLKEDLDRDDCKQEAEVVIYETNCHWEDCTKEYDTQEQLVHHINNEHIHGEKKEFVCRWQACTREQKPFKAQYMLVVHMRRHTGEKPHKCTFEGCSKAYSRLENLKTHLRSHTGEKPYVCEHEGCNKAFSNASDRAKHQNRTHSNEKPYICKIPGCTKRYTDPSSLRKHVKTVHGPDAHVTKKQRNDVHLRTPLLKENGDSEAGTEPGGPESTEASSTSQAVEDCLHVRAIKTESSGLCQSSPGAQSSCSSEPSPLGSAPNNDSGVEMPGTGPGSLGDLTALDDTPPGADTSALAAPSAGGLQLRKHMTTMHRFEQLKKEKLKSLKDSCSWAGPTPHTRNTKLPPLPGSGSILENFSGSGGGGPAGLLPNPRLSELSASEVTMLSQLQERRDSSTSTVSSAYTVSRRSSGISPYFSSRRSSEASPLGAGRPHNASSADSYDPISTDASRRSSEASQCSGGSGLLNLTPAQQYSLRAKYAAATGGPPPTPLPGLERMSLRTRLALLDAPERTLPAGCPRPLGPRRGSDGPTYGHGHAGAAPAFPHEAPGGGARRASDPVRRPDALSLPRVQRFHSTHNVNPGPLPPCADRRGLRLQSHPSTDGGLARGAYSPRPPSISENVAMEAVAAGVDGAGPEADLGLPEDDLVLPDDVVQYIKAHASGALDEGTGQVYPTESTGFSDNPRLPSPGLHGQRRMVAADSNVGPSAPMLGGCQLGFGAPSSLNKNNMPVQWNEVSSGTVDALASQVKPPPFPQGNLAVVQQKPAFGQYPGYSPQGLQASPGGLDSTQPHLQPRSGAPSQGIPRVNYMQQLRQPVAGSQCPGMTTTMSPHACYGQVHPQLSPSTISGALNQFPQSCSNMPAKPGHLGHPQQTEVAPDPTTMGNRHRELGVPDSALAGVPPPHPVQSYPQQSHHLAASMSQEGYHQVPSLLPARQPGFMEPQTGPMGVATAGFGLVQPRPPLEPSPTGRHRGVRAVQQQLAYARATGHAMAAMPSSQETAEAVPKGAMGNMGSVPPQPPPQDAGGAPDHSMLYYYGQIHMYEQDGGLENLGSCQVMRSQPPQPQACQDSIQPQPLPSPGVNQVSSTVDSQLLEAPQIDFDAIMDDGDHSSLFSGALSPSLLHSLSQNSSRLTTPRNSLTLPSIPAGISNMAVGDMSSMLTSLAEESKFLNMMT
UniProt P08151: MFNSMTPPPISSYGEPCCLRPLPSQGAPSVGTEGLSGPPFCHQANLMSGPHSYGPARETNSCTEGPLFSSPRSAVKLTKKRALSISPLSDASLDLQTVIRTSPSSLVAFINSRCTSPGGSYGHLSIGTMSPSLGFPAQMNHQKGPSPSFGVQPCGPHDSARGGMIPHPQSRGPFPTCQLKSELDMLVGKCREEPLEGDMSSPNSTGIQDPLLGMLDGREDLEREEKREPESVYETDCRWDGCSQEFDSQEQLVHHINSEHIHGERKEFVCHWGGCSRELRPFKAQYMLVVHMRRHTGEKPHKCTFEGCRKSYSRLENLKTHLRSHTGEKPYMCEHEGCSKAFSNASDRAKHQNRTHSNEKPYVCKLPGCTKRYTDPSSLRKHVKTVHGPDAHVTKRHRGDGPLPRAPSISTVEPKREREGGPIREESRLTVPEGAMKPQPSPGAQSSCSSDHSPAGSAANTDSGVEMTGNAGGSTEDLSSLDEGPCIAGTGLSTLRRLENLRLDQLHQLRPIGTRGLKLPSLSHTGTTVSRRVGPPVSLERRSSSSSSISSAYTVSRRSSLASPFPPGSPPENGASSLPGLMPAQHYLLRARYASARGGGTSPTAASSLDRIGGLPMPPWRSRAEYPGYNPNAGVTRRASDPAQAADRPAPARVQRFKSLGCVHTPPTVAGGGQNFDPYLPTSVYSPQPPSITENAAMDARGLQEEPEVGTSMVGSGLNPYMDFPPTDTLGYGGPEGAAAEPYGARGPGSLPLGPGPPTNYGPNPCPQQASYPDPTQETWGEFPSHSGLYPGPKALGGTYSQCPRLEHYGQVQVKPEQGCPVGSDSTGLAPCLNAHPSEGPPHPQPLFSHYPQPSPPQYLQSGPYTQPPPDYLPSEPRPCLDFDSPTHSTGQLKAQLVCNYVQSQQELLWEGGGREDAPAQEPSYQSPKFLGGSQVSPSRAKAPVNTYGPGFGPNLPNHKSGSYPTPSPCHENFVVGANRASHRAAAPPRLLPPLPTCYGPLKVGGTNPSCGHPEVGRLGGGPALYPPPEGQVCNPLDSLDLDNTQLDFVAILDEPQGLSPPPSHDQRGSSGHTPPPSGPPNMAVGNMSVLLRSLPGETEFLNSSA

binding	Substance
binds	Gli2 (from UniProt P10070 1-1586)
binds	Gli1 (from UniProt P08151 1-1106)

— PMC7836478
